# The campaign covered roughly 400,000 compounds. About 13,000 (3.2%) were called active. The inconclusive results got no clear call from the source; some entries with a clear call stand among them for comparison. The call rests on the fitted dose curve; in most records, active means well fitted cell-killing curve with a large enough effect; inconclusive means small, poorly fitted or top-dose-only effect, or effect the other way; inactive means flat fitted curve, though single readings scatter. Potencies of inconclusive entries are doubtful fits and often do not repeat.
# Assay: qHTS assay for MDR1-selective chemotherapeutics: Primary screen using the drug-selected MDR subline cells KB-V1; further: nearly all actives have a fitted effect of over 60% in size
# Settings: KB-V1 MDR cells viability, CellTiter-Glo, 72 h; activity change, negative = cytotoxicity: at 46.1 µM (top of the series)
# In short: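 KB-V1 MDR subline cells in DMEM (phenol-red free, 10% FBS) exposed to compounds in qHTS concentration series for 72 h at 37 degrees C. Viability read by CellTiter-Glo luminescence; concentration-effect curves fitted after normalization and correction.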
# On the % scale 0 is the no-effect control and ±100 the full control effect; potency means the concentration at half of the fitted maximal effect.
Compound,Potency,"activity change, negative = cytotoxicity"
CCOc1ccc(C(=O)N2CCCC2)cc1OC,"inconclusive: 20.6 µM [rising, partial curve, poor fit]",
COc1ccc(CNC(=O)C(C)Sc2nc3ccccc3c(=O)n2CCCN2CCOCC2)cc1 (stereo not given),"inconclusive: 18.4 µM [cytotoxic, partial curve]",
CCOc1ccccc1OCC(=O)Nc1ccc2[nH]c(=O)[nH]c2c1,active: 16.4 µM,
Brc1nc2ncnc(NCc3ccco3)c2[nH]1,,inactive: -7.71%
Cc1nc(NC(=O)c2ccccc2)nc2cc3c(cc12)OCO3,"inconclusive: 16.4 µM [cytotoxic, partial curve]",
CCCCCCCCCCCCCCCC[n+]1ccc(CC(O)c2c(C)[nH]c3ccccc23)c2ccccc21 (stereo not given),active: 16.4 µM,
CCOc1ccc(NC(=O)CN(C)C(=O)CC2CC3CCC2C3)cc1OCC (stereo not given),"inconclusive: 9.2 µM [cytotoxic, partial curve]",
Cc1ccc([N+](=O)[O-])cc1NC(=S)NC(=O)C(C)(C)C,,inactive: -7.94%
Cc1ccc(S(=O)(=O)NC(C)C(=O)OCC(=O)Nc2sccc2C(N)=O)cc1 (stereo not given),,inactive: -7.01%
COc1ccc(C(c2nnnn2C(C)(C)C)N2CCN(C(=O)c3ccco3)CC2)cc1 (stereo not given),"inconclusive: 16.4 µM [cytotoxic, partial curve, poor fit]",
CCN1CCN(Cc2c(O)ccc3c(=O)c(-c4ccc(OC)c(OC)c4)c(C(F)(F)F)oc23)CC1,"inconclusive: 4.61 µM [cytotoxic, partial curve]",
NS(=O)(=O)c1ccc(N=Cc2c(O)c3ccccc3oc2=O)cc1,,inactive: -2.74%
COc1cc(OC)cc(C(=O)N[C@H](C(=O)OCC(=O)c2ccc(C)c([N+](=O)[O-])c2)C(C)C)c1,,inactive: 9.48%
CCCCOc1ccccc1Cn1c(=O)oc2ccc(C)cc21,"inconclusive: 20.6 µM [cytotoxic, partial curve]",
COc1ccc(-c2coc3c(C(=O)NC(C)C)cccc23)c(C)c1,,inactive: -5.97%
Cc1ccc(S(=O)(=O)N2CCN(CC(=O)Nc3ccc4c(c3)CCC4)CC2)cc1C,active: 2.91 µM,
Cc1cc(C(=O)NNC(=O)CN2C(=O)NC(C)(c3ccccc3)C2=O)c(C)o1 (stereo not given),,inactive: 11.8%
O=S(=O)(Nc1nc2ccccc2nc1Nc1cccc(S(=O)(=O)N2CCCCC2)c1)c1ccccc1,active: 7.31 µM,
CCc1nc2nc(C)cc(Nc3ccc(OC)cc3)n2n1,,inactive: 19.2%
COc1ccc(Cn2nnnc2C(c2cc3cc(C)ccc3[nH]c2=O)N2CCOCC2)cc1 (stereo not given),"inconclusive: 10.3 µM [cytotoxic, partial curve]",
Cn1c(/C(C#N)=C(\O)c2cccc(F)c2)nc2ccccc21,,inactive: -2.68%
COc1ccc(-c2cc(NC=O)c3ncc(-c4cccc(OC)c4)n3c2)cc1,active: 7.31 µM,
Cc1ccc(NC(=O)C(=O)NCCOc2ccccc2Cl)cc1,"inconclusive: 23.1 µM [cytotoxic, partial curve, poor fit]",

# In another format: entries from further up.
Compound | Potency | activity change, negative = cytotoxicity
Cc1nc(NC(=O)c2ccccc2)nc2cc3c(cc12)OCO3 | inconclusive: 16.4 µM [cytotoxic, partial curve] | 
CCCCCCCCCCCCCCCC[n+]1ccc(CC(O)c2c(C)[nH]c3ccccc23)c2ccccc21 (stereo not given) | active: 16.4 µM | 
CCOc1ccc(NC(=O)CN(C)C(=O)CC2CC3CCC2C3)cc1OCC (stereo not given) | inconclusive: 9.2 µM [cytotoxic, partial curve] | 
Cc1ccc([N+](=O)[O-])cc1NC(=S)NC(=O)C(C)(C)C |  | inactive: -7.94%
Cc1ccc(S(=O)(=O)NC(C)C(=O)OCC(=O)Nc2sccc2C(N)=O)cc1 (stereo not given) |  | inactive: -7.01%
COc1ccc(C(c2nnnn2C(C)(C)C)N2CCN(C(=O)c3ccco3)CC2)cc1 (stereo not given) | inconclusive: 16.4 µM [cytotoxic, partial curve, poor fit] | 
CCN1CCN(Cc2c(O)ccc3c(=O)c(-c4ccc(OC)c(OC)c4)c(C(F)(F)F)oc23)CC1 | inconclusive: 4.61 µM [cytotoxic, partial curve] | 
NS(=O)(=O)c1ccc(N=Cc2c(O)c3ccccc3oc2=O)cc1 |  | inactive: -2.74%
COc1cc(OC)cc(C(=O)N[C@H](C(=O)OCC(=O)c2ccc(C)c([N+](=O)[O-])c2)C(C)C)c1 |  | inactive: 9.48%
CCCCOc1ccccc1Cn1c(=O)oc2ccc(C)cc21 | inconclusive: 20.6 µM [cytotoxic, partial curve] | 

# (listing goes on)

Compound,Potency,"activity change, negative = cytotoxicity"
O=C(NN=C1CCCC1)NC1CCCCC1,"inconclusive: 14.6 µM [rising, partial curve, poor fit]",
CCOc1cc(/C=C2/C(=O)ON=C2C)ccc1OCc1ccccc1F,"inconclusive: 29.1 µM [cytotoxic, single point]",
CCOC(=O)CNS(=O)(=O)c1ccc(S(=O)(=O)NC2CC2)cc1,,inactive: 26.5%
CC(=O)Nc1cccc(-c2ccnc3c2CC(C(=O)Nc2ccc(F)c(Cl)c2)O3)c1 (stereo not given),,inactive: -0.591%
Cc1onc(-c2ccccc2Cl)c1C(=O)N1CC(C)CC(C)C1 (stereo not given),"inconclusive: 0.206 µM [cytotoxic, full curve]",
Fc1ccc(CN2CCN3CCCC3C2C2CCCCC2)cc1F (stereo not given),,inactive: -1.19%
CCOc1cccc2sc(Nc3nc4ccc(NC(C)=O)cc4s3)nc12,"inconclusive: 16.4 µM [cytotoxic, partial curve]",
CCOc1cc(C2c3c(-c4ccccc4)n[nH]c3C(=O)N2c2ccc(C(=O)O)cc2)ccc1O (stereo not given),"inconclusive: 23.1 µM [rising, single point]",
COC(=O)[C@]12CCCCC=C1N(CCC1=CCCCC1)C(=O)[C@H](CC(=O)N1CCC(c3ccccc3)CC1)C2,"inconclusive: 29.1 µM [cytotoxic, single point]",
O=C(N=C1SCC(=O)N1c1ccccc1)c1ccco1,"inconclusive: 32.6 µM [rising, single point]",
Cc1ccc(OCCCCN2CCCC(C)C2)c([N+](=O)[O-])c1 (stereo not given),"inconclusive: 20.6 µM [cytotoxic, single point]",
Cc1cccc(NC(=O)C2CCN(S(=O)(=O)c3c(C)c(C)cc(C)c3C)CC2)n1,"inconclusive: 23.1 µM [cytotoxic, single point]",
CCc1ccc(NC(=O)COc2ccc(/C=C(/C#N)c3nc4ccccc4[nH]3)cc2OC)cc1,"inconclusive: 2.31 µM [cytotoxic, partial curve, poor fit]",
Cc1ccc(C)c(S(=O)(=O)NC(CC(C)C)C(=O)O)c1 (stereo not given),"inconclusive: 29.1 µM [rising, single point]",
C#CCN(Cc1ccc(OC)cc1)S(=O)(=O)C=C,"inconclusive: 18.4 µM [cytotoxic, single point]",
C=CC[C@@H](CC(=O)OC(C)(C)C)C(=O)OC[C@@H]1CCCN1C(=O)[C@@H](CC=C)CC(=O)N[C@@H](CO)Cc1ccccc1,,inactive: 1.07%
Cc1cc(-c2nnc(CCC(=O)NC(C)c3ccccc3Cl)o2)no1 (stereo not given),"inconclusive: 16.4 µM [cytotoxic, partial curve, poor fit]",
O=C(CCN1C(=O)CC1c1ccco1)N1CCOCC1 (stereo not given),,inactive: 4.41%
O=C(Nc1cccnc1)/C(N=Nc1c(Cl)cccc1Cl)=C(\O)c1ccccc1,"inconclusive: 0.517 µM [cytotoxic, full curve, poor fit]",
C(=C\c1ccccn1)/c1ccncc1,"inconclusive: 0.651 µM [rising, full curve, poor fit]",
Cc1ccc(-n2ncc(C(=O)NC3CCCC3)c2C2CCN(C(=O)OC(C)(C)C)CC2)c(C)c1,,inactive: 0.653%
Cc1ccc2c(C)nc(Nc3nc(CSc4nc5ccccc5s4)cc(=O)[nH]3)nc2c1,,inactive: 31.7%

# Source: PubChem BioAssay AID1347076 (National Center for Advancing Translational Sciences (NCATS), 2019)
